Experimental data published in PMC10163288.
The other results are listed elsewhere or left out.

B1: il2ra_site2_3nfp_normal_mot_HHH_b2_06150_000000217_0001_39_53_H_._HHH_b2_05833_0001_0000200009_0000001_0_af2pred_0001_af2pred (protein)
chain: SSSDAEERVRELIEEAKELAERGNPEEAREVLAEAAELAWELGDTELAMEIAELLLRVEELSSSS
B2: il2ra_site1_3nfp_normal_mot_eb5a5eebac1e5153f932cc6c3f4b2787_0001_af2_000000065_0001_18_33_H_._31bff7180b20e3ed47766ceefd9934be_0001_af2_0001_0000100001_0000001 … (protein)
chain: DEEEELAELIRQAVEKNDPELLKRVAEELLRKLGDPKEAIRLFEELLEKAGLSPREKYLALKLST
B3: il2ra_site2_2erj_normal_mot_HHH_b1_06554_af2_000000190_0001_44_57_H_._HHH_b2_07703_0001_0000100004_0000001_0_af2pred_0001_af2pred_1_swapped (protein)
chain: SSSSSSSIEERVKELLEEAEKVENLEEAEEILDEAFELALQLGNPELLKLIIKVAARRSSSSSSS
B4: il2ra_site1_3nfp_sap_11_mot_40ac32ce855e0fd9c7bcc7eb247393e9_0001_000000113_0001_1_14_H_._HHH_b2_01948_af2_0001_0000100007_0000001_0_0001_af2pred_0001_af2pred (protein)
chain: SSDEYFEELVREVEELAEEKNDEEVRELAERARRLYREAKENRDHRAAHEAIRIVAKLRMEVTSS
B5: il2ra_site2_2erj_normal_mot_HHH_b1_00071_af2_000000225_0001_40_56_H_._HHH_b2_07268_0001_0000500020_0000001_0_af2pred_0001_af2pred (protein)
chain: SSSSTEALEEAARVLLRLSELLANGNPEEAEELVEEAEQRLEELGNPLLAEDVREYYERAKSSSS
B6: il2ra_site1_3nfp_sap_16_mot_HHH_b1_03720_af2_000000263_0001_1_17_H_._HHH_b1_05759_af2_0001_0000100006_0000001_0_0001 (protein)
chain: DEAKAVAKLIEDAAKAAGVPRVEVEVHNGTVEVTLEGTDEAARAAEEAAKQMAERFGLSFEITTE
B7: il2ra_site1_2b5i_normal_mot_f5ff40796168375b462bec8614a1db4a_0001_1_000000138_0001_53_65_H_._HHH_b1_07969_0001_0000900032_0000001_1_af2pred_dldesign_0_af2pred (protein)
chain: SSSSSSAREDVEELLERVRELRAAGRLDEARRLLTLARRIAKANNDEELIKEVEELEKLLSSSSS
B8: il2ra_site2_2erj_sap_33_mot_3b06bd03f1c6bceadc68eab912867b79_0001_000000296_0001_36_50_H_._817f55ea79620009d595c52c317e02eb_0001_1_af2_0001_0000300006_0000001_1 … (protein)
chain: SSSSDWLHRLYKLAVRILELLARGNPEEAREVLEELEELAEETDSENAKEAAEALERQLNSSSSS
B9: il2ra_site2_3nfp_sap_18_mot_HHH_b1_03376_000000004_0001_41_55_H_._HHH_b2_00201_af2_0001_0000100022_0000001_0_0001 (protein)
chain: SSSSSDDHEVYEQVVELLKRAAHIEDEEEVERLLEEARRLAEELGDPVLRRSVEDSARALSSSSS
B10: il2ra_site1_3nfp_normal_mot_5dea99290cf7e133ebc5b763b21a7a39_0001_000000141_0001_34_49_H_._HHH_b1_06472_0001_0000300025_0000001_0 (protein)
chain: SSSSDEEEKEVEELLEEARELYENGNPQEASKLLERIWKLISHIGNLELAELLYELMRELSSSSS
B11: il2ra_site1_2b5i_sap_14_mot_HHH_b1_05188_af2_000000065_0001_43_56_H_._HHH_b1_02810_0001_0000100001_0000001_0_0001_af2pred_0001_af2pred (protein)
chain: SSSSDELLERVLELLREADELAKNGNPEEARRVLEEALEIVEELGSKNLRRLVEAMLKLASSSSS
B12: il2ra_site2_3nfp_normal_mot_HHH_b1_05627_af2_000000038_0001_43_56_H_._HHH_b1_04379_0001_0000300012_0000001_1 (protein)
chain: SSSSDKAEEYLEVALEVLRELIEEGNEEAVEEVIRAIKLLAEALNDEEIERELKKLEEEFSSSSS
B13: il2ra_site1_2b5i_normal_mot_HHH_b1_01949_af2_000000166_0001_1_19_H_._HHH_b2_00613_0001_0000300041_0000001_0_af2pred_0001_af2pred (protein)
chain: SSSSDEEFQRVDELYREASRLFRSGDKEEAREVLREAQEIAEEANDPTAVKDLERFLRAASSSSS
B14: il2ra_site1_3nfp_normal_mot_ems_3hC_921_af2_000000143_0001_22_40_H_._b9b1aa0f98829a21a591038753170461_0001_1_af2_0001_0000300017_0000001_0_af2pred_0001_af2pred_ … (protein)
chain: SEEIAELLVRRAVEQNSPRLLKRILENLERNLGDPEEAKRLLEELLELVLGDPEEVERLLELAEE
B15: il2ra_site1_3nfp_normal_mot_HHH_b1_04931_000000291_0001_38_56_H_._HHH_b2_03644_0001_0000100002_0000001_0_af2pred_0001_af2pred (protein)
chain: SSSSSDEEDREEVERLLEEAKRIEDPREANEVLKEALKIASEAGDPELYELVAKVLKELASSSSS
B16: il2ra_site2_3nfp_normal_mot_HHH_b1_04338_af2_000000107_0001_41_56_H_._HHH_b2_06761_0001_0000100005_0000001_0 (protein)
chain: SSSDESEEIFERAEKELRRLLEEGNREEATELTFEALEELKELGDDRLVLRLYAILQRALFSSSS
B17: il2ra_site2_3nfp_normal_mot_HHH_b1_07556_000000077_0001_42_55_H_._HHH_b2_08127_0001_0000300029_0000001_0 (protein)
chain: SSSSDLEEEAKEVIKEVEELLERGDPHEAFALLAEIIFKVVQLGNEEVFRLLAQVAHEVAESSSS
B18: il2ra_site1_1z92_sap_16_mot_934a834d9b8b770824478def2ff2f329_0001_af2_000000088_0001_15_30_H_._HHH_b1_00430_af2_0001_0000200020_0000001_0_0001_af2pred_0001_af2p … (protein)
chain: DEEEAREIVEEVEEDPELRKRLIELLAEKARVPPRLAEQFLKQLLRRVKHGDPNAVLDLLDLFEL

Biological target: il2ra, P01589
Experiment: yeast display titration

Apparent Kd, inactive:
B1 no binding seen
B2 no binding seen
B3 no binding seen
B4 no binding seen
B5 no binding seen
B6 no binding seen
B7 no binding seen
B8 no binding seen
B9 no binding seen
B10 no binding seen
B11 no binding seen
B12 no binding seen
B13 no binding seen
B14 no binding seen
B15 no binding seen
B16 no binding seen
B17 no binding seen
B18 no binding seen

Retrieved one by one from above:
Apparent Kd, inactive:
B2 no binding seen
B10 no binding seen
